PubChem BioAssay AID1053208, Peter MacCallum Cancer Centre, 2014

Purpose: 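Synthetic lethal interactions between gene loss and doxorubicin in osteosarcoma cells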 (primary screen)
Cells: mouse osteosarcoma cells, early-passage culture from an engineered mouse model of fibroblastic bone tumour
Knock-down reagent: siRNA pool against mouse genes, 40 nM
Timing: about 120 h (48 h before drug, then 72 h with drug)
Treatment: doxorubicin 100 nM for 72 h, roughly 30-40% inhibitory dose
Detection: 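Viability read as ATP luminescence after 72 h of 100 nM doxorubicin or none, duplicate wells averaged, scaled to non-targeting siRNA, then expressed as robust z-scores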
Scale: viability z-score with doxorubicin: higher = more viable cells under doxorubicin; viability z-score without drug: higher = more viable cells with knock-down alone
Active means: 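Called active if knock-down leaves viability unchanged without drug (z within -2 to 2) but lowers it with doxorubicin (z at or under -2)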
Here is one part, drawn at random, of about 17,000 deposited reagents. Of all reagents, 788 (4.7%) were called active. 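Calls rest on z-score classes alone; an extra cut-off of viability at most 70% of control was not applied to them.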 Not all columns of the deposit are shown.

The first 2 records, ahead of the listing:
{"Target gene":"Chrnb4","combined z-score class":"no change with or without drug","viability z-score with doxorubicin":-1.8,"viability z-score without drug":-0.84,"activity call":"inactive"}
{"Target gene":"Trps1","combined z-score class":"no change with or without drug","viability z-score with doxorubicin":-0.45,"viability z-score without drug":0.51,"activity call":"inactive"}

The list itself, from the start:
{"Target gene":"Chrnb4","combined z-score class":"no change with or without drug","viability z-score with doxorubicin":-1.8,"viability z-score without drug":-0.84,"activity call":"inactive"}
{"Target gene":"Trps1","combined z-score class":"no change with or without drug","viability z-score with doxorubicin":-0.45,"viability z-score without drug":0.51,"activity call":"inactive"}
{"Target gene":"Tmbim6","combined z-score class":"no change with or without drug","viability z-score with doxorubicin":-0.45,"viability z-score without drug":-0.51,"activity call":"inactive"}
{"Target gene":"Mup1","combined z-score class":"no change with or without drug","viability z-score with doxorubicin":-0.22,"viability z-score without drug":-0.84,"activity call":"inactive"}
{"Target gene":"Lrrd1","combined z-score class":"no change with or without drug","viability z-score with doxorubicin":-0.22,"viability z-score without drug":-0.17,"activity call":"inactive"}
{"Target gene":"Vamp7","combined z-score class":"no change with or without drug","viability z-score with doxorubicin":1.01,"viability z-score without drug":1.85,"activity call":"inactive"}
{"Target gene":"4933411G06Rik","combined z-score class":"high cell count with doxorubicin only","viability z-score with doxorubicin":2.59,"viability z-score without drug":0.84,"activity call":"inactive"}
{"Target gene":"Cerk","combined z-score class":"no change with or without drug","viability z-score with doxorubicin":-1.12,"viability z-score without drug":0,"activity call":"inactive"}
{"Target gene":"Plcxd3","combined z-score class":"low cell count with doxorubicin only","viability z-score with doxorubicin":-2.7,"viability z-score without drug":-0.17,"activity call":"active"}
{"Target gene":"Rnf114","combined z-score class":"no change with or without drug","viability z-score with doxorubicin":-1.69,"viability z-score without drug":1.69,"activity call":"inactive"}
{"Target gene":"Rtca","combined z-score class":"high cell count with and without drug","viability z-score with doxorubicin":2.02,"viability z-score without drug":2.87,"activity call":"inactive"}
{"Target gene":"Nob1","combined z-score class":"no change with or without drug","viability z-score with doxorubicin":-0.11,"viability z-score without drug":0.17,"activity call":"inactive"}
{"Target gene":"Sowahc","combined z-score class":"no change with or without drug","viability z-score with doxorubicin":1.57,"viability z-score without drug":0.84,"activity call":"inactive"}
{"Target gene":"Cyp2s1","combined z-score class":"no change with or without drug","viability z-score with doxorubicin":-0.67,"viability z-score without drug":0.34,"activity call":"inactive"}
{"Target gene":"Nedd1","combined z-score class":"no change with or without drug","viability z-score with doxorubicin":-0.67,"viability z-score without drug":-1.18,"activity call":"inactive"}
{"Target gene":"Ajuba","combined z-score class":"no change with or without drug","viability z-score with doxorubicin":-0.34,"viability z-score without drug":0.51,"activity call":"inactive"}
{"Target gene":"Psg21","combined z-score class":"no change with or without drug","viability z-score with doxorubicin":0,"viability z-score without drug":-1.18,"activity call":"inactive"}
{"Target gene":"Ddx59","combined z-score class":"high cell count with doxorubicin only","viability z-score with doxorubicin":2.02,"viability z-score without drug":0.51,"activity call":"inactive"}
{"Target gene":"Matn3","combined z-score class":"no change with or without drug","viability z-score with doxorubicin":1.01,"viability z-score without drug":-1.18,"activity call":"inactive"}
{"Target gene":"Cklf","combined z-score class":"no change with or without drug","viability z-score with doxorubicin":-1.12,"viability z-score without drug":-1.85,"activity call":"inactive"}
{"Target gene":"Rhbdl2","combined z-score class":"no change with or without drug","viability z-score with doxorubicin":1.57,"viability z-score without drug":0.51,"activity call":"inactive"}
{"Target gene":"Tcstv2a","combined z-score class":"no change with or without drug","viability z-score with doxorubicin":1.12,"viability z-score without drug":1.52,"activity call":"inactive"}
{"Target gene":"Aamp","combined z-score class":"no change with or without drug","viability z-score with doxorubicin":0.45,"viability z-score without drug":0.84,"activity call":"inactive"}
{"Target gene":"Fam25a","combined z-score class":"low cell count with doxorubicin only","viability z-score with doxorubicin":-3.93,"viability z-score without drug":-0.17,"activity call":"active"}
{"Target gene":"Fbxw26","combined z-score class":"no change with or without drug","viability z-score with doxorubicin":-0.45,"viability z-score without drug":0.84,"activity call":"inactive"}
{"Target gene":"AI931714","combined z-score class":"no change with or without drug","viability z-score with doxorubicin":1.12,"viability z-score without drug":1.52,"activity call":"inactive"}
{"Target gene":"Bcl2l14","combined z-score class":"no change with or without drug","viability z-score with doxorubicin":-0.22,"viability z-score without drug":-0.51,"activity call":"inactive"}
{"Target gene":"Tas2r123","combined z-score class":"no change with or without drug","viability z-score with doxorubicin":-0.22,"viability z-score without drug":0,"activity call":"inactive"}
